Data from the supplement of paper PMC10849652.
The other results are listed elsewhere or left out. Residues, ends and D or L forms follow the SMILES beside them. *: point of attachment. Cbz = O=C(OCc1ccccc1)*

Sequences of proteins named here, by UniProt entry; tags and fusion partners are left off. A change or cut given only in a name is not applied to a line headed by its entry.
UniProt P18669: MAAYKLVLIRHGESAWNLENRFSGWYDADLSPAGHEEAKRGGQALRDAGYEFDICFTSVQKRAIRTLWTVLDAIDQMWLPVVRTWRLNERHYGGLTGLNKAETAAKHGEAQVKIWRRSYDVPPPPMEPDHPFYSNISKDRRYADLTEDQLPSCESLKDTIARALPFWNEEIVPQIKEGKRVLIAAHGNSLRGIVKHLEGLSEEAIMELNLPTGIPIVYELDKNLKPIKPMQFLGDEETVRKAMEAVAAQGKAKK
UniProt Q9GZP4: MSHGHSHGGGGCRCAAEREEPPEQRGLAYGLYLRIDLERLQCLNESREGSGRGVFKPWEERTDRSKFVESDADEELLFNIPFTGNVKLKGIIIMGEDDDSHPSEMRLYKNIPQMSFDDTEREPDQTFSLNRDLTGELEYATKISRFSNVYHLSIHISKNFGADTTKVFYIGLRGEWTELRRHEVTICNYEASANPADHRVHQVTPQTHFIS
UniProt Q9Y263: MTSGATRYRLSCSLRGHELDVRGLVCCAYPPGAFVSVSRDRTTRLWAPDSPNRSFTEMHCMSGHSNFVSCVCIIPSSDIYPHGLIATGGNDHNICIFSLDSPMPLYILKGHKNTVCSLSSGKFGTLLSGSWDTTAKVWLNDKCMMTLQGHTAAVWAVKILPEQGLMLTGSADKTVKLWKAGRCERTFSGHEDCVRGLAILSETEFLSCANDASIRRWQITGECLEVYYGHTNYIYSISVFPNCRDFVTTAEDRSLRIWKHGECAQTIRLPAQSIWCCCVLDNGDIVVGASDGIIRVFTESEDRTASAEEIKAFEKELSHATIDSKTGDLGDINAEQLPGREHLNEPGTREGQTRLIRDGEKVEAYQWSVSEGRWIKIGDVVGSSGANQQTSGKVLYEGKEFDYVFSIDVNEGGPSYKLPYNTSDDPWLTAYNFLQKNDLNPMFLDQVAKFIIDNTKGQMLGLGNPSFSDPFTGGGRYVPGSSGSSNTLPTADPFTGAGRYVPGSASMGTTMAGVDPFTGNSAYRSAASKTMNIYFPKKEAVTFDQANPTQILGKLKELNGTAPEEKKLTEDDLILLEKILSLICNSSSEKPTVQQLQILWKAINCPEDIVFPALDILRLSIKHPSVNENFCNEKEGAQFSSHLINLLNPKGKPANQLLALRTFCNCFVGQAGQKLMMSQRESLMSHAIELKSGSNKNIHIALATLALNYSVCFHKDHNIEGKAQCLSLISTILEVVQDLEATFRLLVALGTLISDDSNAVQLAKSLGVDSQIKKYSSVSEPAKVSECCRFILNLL
UniProt Q13393: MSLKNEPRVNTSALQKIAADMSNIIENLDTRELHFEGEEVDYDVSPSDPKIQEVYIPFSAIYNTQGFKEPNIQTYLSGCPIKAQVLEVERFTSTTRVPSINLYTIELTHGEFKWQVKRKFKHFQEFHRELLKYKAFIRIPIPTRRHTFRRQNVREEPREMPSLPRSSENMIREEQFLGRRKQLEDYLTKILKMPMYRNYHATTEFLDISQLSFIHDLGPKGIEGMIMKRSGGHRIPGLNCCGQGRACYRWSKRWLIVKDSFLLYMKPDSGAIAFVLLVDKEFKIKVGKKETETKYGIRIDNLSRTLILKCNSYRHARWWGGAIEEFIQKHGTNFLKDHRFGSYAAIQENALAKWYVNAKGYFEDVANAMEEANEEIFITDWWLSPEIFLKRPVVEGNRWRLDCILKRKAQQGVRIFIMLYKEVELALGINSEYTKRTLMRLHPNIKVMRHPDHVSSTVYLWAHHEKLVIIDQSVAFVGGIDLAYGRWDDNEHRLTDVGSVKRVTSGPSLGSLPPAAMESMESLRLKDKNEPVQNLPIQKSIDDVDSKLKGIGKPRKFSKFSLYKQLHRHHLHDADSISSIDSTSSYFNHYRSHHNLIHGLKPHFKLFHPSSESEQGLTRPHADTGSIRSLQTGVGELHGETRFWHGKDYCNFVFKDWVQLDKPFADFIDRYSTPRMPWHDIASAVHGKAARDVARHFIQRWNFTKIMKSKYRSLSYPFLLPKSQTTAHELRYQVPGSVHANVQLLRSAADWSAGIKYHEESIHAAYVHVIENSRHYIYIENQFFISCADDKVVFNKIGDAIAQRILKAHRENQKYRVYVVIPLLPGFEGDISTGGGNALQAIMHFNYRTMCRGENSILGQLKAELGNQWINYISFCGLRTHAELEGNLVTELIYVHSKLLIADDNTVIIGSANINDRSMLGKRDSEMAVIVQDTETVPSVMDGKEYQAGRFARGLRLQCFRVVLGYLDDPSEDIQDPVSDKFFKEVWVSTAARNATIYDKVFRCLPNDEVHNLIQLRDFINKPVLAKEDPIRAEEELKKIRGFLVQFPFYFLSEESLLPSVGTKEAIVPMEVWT
UniProt Q92643: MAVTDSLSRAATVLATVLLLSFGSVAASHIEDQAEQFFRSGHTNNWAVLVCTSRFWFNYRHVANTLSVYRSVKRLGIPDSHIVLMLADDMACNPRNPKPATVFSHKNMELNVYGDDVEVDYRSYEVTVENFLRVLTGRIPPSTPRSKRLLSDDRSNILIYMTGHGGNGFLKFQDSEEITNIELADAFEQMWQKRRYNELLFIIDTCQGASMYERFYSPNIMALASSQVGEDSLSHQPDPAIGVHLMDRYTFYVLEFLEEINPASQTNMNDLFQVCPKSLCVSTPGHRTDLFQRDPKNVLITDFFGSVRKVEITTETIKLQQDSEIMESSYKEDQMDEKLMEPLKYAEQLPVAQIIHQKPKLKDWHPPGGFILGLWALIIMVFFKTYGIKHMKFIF
UniProt Q96S52: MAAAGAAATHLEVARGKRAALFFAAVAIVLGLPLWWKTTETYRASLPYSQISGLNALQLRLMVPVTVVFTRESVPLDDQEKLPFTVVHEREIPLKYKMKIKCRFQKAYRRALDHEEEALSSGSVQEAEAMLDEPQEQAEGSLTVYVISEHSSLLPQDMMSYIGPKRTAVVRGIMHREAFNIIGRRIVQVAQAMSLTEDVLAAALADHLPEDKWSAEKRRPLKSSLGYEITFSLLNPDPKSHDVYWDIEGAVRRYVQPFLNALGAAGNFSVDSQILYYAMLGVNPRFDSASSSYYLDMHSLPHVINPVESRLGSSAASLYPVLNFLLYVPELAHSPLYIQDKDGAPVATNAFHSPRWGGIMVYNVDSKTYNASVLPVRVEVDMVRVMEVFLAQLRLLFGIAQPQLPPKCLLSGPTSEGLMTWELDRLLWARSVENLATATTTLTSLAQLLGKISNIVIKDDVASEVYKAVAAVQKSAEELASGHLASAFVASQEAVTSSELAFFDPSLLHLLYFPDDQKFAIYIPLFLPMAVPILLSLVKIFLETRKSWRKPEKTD
UniProt Q9Y237, whole entry, looked up: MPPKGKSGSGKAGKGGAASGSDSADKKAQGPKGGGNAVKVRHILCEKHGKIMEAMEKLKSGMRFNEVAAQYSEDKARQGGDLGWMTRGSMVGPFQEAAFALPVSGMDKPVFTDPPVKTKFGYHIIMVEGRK
UniProt P00558: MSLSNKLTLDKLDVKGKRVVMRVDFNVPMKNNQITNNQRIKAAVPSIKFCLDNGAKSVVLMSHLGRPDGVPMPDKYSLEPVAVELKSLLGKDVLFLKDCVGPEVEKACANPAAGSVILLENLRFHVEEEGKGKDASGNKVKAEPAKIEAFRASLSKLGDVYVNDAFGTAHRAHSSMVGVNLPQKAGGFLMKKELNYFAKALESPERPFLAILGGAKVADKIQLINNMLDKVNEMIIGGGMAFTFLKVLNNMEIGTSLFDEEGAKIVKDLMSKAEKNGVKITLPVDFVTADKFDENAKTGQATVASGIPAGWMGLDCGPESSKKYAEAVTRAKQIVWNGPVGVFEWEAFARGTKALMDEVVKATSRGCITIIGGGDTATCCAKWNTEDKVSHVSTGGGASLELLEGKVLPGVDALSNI
UniProt Q9BRB3: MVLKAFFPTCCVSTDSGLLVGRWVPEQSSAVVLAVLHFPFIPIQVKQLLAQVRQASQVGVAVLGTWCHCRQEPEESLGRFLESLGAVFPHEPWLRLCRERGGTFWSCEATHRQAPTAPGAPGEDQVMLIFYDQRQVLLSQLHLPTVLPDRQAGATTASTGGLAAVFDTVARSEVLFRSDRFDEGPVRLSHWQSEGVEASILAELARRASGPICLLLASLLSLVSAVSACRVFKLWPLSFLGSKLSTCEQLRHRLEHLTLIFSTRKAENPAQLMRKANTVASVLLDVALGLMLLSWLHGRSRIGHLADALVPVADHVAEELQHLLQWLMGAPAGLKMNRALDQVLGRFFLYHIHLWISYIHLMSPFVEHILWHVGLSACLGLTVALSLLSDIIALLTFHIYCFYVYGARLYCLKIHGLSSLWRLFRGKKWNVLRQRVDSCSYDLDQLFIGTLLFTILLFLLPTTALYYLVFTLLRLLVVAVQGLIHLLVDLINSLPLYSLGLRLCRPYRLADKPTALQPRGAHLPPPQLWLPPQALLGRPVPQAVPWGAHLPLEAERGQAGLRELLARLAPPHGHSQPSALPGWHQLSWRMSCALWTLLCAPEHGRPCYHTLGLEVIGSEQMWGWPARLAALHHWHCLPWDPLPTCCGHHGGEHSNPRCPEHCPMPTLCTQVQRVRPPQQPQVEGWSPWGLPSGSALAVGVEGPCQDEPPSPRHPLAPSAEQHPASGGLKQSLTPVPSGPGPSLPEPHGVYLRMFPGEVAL
UniProt P52209: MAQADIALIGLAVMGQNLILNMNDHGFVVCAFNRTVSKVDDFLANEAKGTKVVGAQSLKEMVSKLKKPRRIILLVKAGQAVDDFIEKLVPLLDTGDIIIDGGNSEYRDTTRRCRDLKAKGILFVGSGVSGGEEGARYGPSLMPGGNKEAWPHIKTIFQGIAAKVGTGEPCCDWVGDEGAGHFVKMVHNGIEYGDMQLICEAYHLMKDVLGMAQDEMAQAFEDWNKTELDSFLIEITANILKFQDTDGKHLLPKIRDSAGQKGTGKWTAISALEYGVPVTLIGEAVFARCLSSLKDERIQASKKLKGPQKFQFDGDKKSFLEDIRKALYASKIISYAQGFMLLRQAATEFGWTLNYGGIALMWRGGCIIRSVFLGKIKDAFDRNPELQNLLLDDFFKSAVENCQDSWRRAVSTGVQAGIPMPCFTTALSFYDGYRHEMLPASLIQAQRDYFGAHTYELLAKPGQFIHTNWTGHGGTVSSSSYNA
UniProt P51178: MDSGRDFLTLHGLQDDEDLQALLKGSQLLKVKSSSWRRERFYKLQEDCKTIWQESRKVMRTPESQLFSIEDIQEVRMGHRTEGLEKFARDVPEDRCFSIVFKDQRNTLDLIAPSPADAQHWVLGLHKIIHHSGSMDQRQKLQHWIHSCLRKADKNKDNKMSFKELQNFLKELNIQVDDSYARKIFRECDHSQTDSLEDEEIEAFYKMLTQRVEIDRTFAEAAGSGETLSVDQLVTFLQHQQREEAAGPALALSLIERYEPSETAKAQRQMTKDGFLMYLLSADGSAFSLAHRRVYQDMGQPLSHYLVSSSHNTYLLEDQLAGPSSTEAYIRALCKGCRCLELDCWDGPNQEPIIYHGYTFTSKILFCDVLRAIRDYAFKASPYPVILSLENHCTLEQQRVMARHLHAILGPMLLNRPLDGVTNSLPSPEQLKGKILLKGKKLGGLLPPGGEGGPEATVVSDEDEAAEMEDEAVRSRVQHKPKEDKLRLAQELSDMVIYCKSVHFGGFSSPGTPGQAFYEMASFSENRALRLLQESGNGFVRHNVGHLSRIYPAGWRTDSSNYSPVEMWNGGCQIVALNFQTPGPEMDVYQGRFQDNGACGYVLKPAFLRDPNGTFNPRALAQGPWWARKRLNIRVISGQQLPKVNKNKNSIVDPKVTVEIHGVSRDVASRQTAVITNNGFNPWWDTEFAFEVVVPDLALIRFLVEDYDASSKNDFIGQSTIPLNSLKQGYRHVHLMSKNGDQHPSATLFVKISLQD
UniProt A6NDG6: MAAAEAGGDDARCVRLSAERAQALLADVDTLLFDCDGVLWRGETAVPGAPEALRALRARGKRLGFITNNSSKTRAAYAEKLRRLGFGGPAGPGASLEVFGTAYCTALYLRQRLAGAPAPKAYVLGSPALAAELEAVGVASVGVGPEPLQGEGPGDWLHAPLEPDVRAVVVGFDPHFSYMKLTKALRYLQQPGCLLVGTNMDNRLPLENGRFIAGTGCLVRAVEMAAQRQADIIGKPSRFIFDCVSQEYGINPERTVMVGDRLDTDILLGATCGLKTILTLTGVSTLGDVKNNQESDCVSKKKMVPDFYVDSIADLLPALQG
UniProt Q9BUL5: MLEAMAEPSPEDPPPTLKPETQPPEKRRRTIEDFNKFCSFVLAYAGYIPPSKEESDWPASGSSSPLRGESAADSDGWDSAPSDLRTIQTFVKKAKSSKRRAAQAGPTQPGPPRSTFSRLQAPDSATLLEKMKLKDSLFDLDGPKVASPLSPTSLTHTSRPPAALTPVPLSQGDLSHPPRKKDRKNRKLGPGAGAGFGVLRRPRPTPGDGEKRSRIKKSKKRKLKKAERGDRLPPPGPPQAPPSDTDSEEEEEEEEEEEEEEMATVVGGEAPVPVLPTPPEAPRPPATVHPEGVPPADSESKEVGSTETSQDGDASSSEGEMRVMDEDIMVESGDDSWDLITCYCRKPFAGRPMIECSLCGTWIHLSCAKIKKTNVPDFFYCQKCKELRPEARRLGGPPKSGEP

Columns and labels:
Assay in all cases: log2 fold change, soluble protein after heating vs DMSO (PISA); higher = thermal stabilisation; K562 cells, 10 uM, 30 min; active = over 0.2 and 3.5 SD of the protein, either way, in both replicates (recomputed)
IRAK-1-4 Inhibitor I = compound: C1COCCN1CCN2C3=CC=CC=C3N=C2NC(=O)C4=CC(=CC=C4)[N+](=O)[O-] [IRAK-1-4 Inhibitor I]
Method in brief: (§1)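 K562 cells (2×10^6 cells/mL) were treated with 10 μM compound for 30 min, and aliquots were heated for 3 min over 48°C-58°C. Pooled aliquots were extracted in PBS with 0.5% NP-40 at 4°C, and the supernatant after 21,000xg for 90 min was measured by TMTpro 16plex LC-MS/MS with channel sums equalised. Reported thermal stability, relative to control samples and from duplicates, is a log2 fold change.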

ibrutinib = compound: C=CC(=O)N1CCC[C@@H](n2nc(-c3ccc(Oc4ccccc4)cc3)c3c(N)ncnc32)C1 [ibrutinib]
Method in brief: as §1

[1] = compound: CC(=O)c1cnc2ccc(-c3cc(Cl)c(O)c(Cl)c3)nc2c1N[C@H]1CC[C@H](CN(C)C)CC1
Method in brief: as §1

ralimetinib = compound: CC(C)(C)Cn1c(N)nc2ccc(-c3[nH]c(C(C)(C)C)nc3-c3ccc(F)cc3)nc21 [ralimetinib]
Method in brief: as §1

[2] = compound: CC(C)(O)CC(=O)NCCn1ccc2ncnc(Nc3ccc(Oc4cccc(C(F)(F)F)c4)c(Cl)c3)c21
Method in brief: as §1

[3] = compound: CC(C)C1=C2N=C(C=C(N2N=C1)NCC3=CC=CC=C3)NCCCCCCN
Method in brief: as §1

[4] = compound: CC(C)C[C@@H](C=O)NC(=O)[C@H](CC(C)C)NC(=O)[C@H](CC(C)C)NC(=O)OCc1ccccc1
Method in brief: as §1

pinometostat = compound: CC(C)N(C[C@H]1O[C@@H](n2cnc3c(N)ncnc32)[C@H](O)[C@@H]1O)[C@H]1C[C@@H](CCc2nc3cc(C(C)(C)C)ccc3[nH]2)C1 [pinometostat]
Method in brief: as §1

[5] = compound: CC1=C(C(CC(=O)N1)C2=CC=C(C=C2)C(F)(F)F)C(=O)NC3=C(C=C4C(=C3)C=NN4)F
Method in brief: as §1

[6] = compound: CC1=C(C2=C(C=C1)C(=O)C3=CC=CC=C3N2CCCN)C
Method in brief: as §1

[7] = compound: CC1=C(C=C(C=C1)NC(=O)C2=CC(=CC=C2)C(C)(C)C#N)NC3=CC4=C(C=C3)N=CN(C4=O)C
Method in brief: as §1

[8] = compound: CC1=C(C=C(C=C1)NC(=O)C2=CC(=CC=C2)N(C)C)NC(=O)C3=CC=C(C=C3)O
Method in brief: as §1

[9] = compound: CC1=CC=C(C=C1)SC2=C3C=C(SC3=CN=C2)C(=O)N
Method in brief: as §1

[10] = compound: CC1=NC(=CC=C1)C2=C(N=C(N2)C(C)(C)C)C3=CC4=NC=CN=C4C=C3
Method in brief: as §1

Nexturastat A = compound: CCCCN(Cc1ccc(C(=O)NO)cc1)C(=O)Nc1ccccc1 [Nexturastat A]
Method in brief: as §1

vemurafenib = compound: CCCS(=O)(=O)Nc1ccc(F)c(C(=O)c2c[nH]c3ncc(-c4ccc(Cl)cc4)cc23)c1F [vemurafenib]
Method in brief: as §1

[11] = compound: CCCS(=O)(=O)Nc1ccc(F)c(C(=O)c2c[nH]c3ncc(Cl)cc23)c1F
Method in brief: as §1

[12] = compound: CCCc1cc(C)[nH]c(=O)c1CNC(=O)c1cc(-c2ccnc(N3CCN(C)CC3)c2)cc2c1cnn2C(C)C
Method in brief: as §1

givinostat = compound: CCN(CC)Cc1ccc2cc(COC(=O)Nc3ccc(C(=O)NO)cc3)ccc2c1 [givinostat]
Method in brief: as §1

barasertib = compound: CCN(CCCOc1ccc2c(Nc3cc(CC(=O)Nc4cccc(F)c4)[nH]n3)ncnc2c1)CCOP(=O)(O)O [barasertib]
Method in brief: as §1

Measured: log2 fold change

PGAM1 (UniProt P18669)
inactive: IRAK-1-4 Inhibitor I 0.047 | ibrutinib 0.029 | [1] 0.003 | ralimetinib 0.005 | [2] 0.009 | [3] 0.037 | [4] 0.117 | pinometostat -0.003 | [5] 0.071 | [6] -0.002 | [7] 0.016 | [8] 0.005 | [9] 0.016 | [10] 0 | Nexturastat A -0.005 | vemurafenib 0.019 | [11] 0.024 | [12] -0.016 | givinostat -0.029 | barasertib -0.011

PICALM (UniProt H0YEY8)
inactive: IRAK-1-4 Inhibitor I 0.05 | ibrutinib 0.062 | [1] -0.083 | ralimetinib -0.034 | [2] 0.003 | [3] 0.012 | [4] 0.204 | pinometostat 0.002 | [5] -0.011 | [6] 0.013 | [7] -0.003 | [8] 0.079 | [9] 0.132 | [10] -0.019 | Nexturastat A -0.005 | vemurafenib 0.07 | [11] 0.28 | [12] -0.211 | givinostat 0.057 | barasertib -0.066

PI4KA (UniProt P42356)
inactive: IRAK-1-4 Inhibitor I -0.032 | ibrutinib -0.004 | [1] 0.004 | ralimetinib 0.157 | [2] 0 | [3] -0.066 | [4] 0.101 | pinometostat 0.134 | [5] 0.002 | [6] -0.009 | [7] 0.036 | [8] -0.052 | [9] -0.023 | [10] -0.047 | Nexturastat A 0.211 | vemurafenib -0.01 | [11] 0.072 | [12] 0.029 | givinostat 0.057 | barasertib 0.044

PITHD1 (UniProt Q9GZP4)
inactive: IRAK-1-4 Inhibitor I 0.081 | ibrutinib 0.048 | [1] -0.022 | ralimetinib -0.08 | [2] 0.059 | [3] 0.128 | [4] 0.031 | pinometostat 0.007 | [5] 0.034 | [6] 0 | [7] 0.012 | [8] 0.034 | [9] 0.023 | [10] -0.086 | Nexturastat A -0.005 | vemurafenib -0.027 | [11] -0.11 | [12] -0.086 | givinostat -0.06 | barasertib 0.027

PLAA (UniProt Q9Y263)
inactive: IRAK-1-4 Inhibitor I -0.016 | ibrutinib -0.02 | [1] 0.016 | ralimetinib 0.016 | [2] -0.139 | [3] -0.072 | [4] 0.091 | pinometostat 0.03 | [5] -0.022 | [6] 0.072 | [7] 0.027 | [8] -0.035 | [9] -0.014 | [10] 0.036 | Nexturastat A 0.05 | vemurafenib 0.002 | [11] 0.02 | [12] -0.013 | givinostat 0.055 | barasertib 0.022

PLD1 (UniProt Q13393)
inactive: IRAK-1-4 Inhibitor I -0.062 | ibrutinib -0.004 | [1] -0.282 | ralimetinib 0.142 | [2] 0.103 | [3] -0.415 | [4] 0.093 | pinometostat 0.197 | [5] 0.193 | [6] 0.034 | [7] 0.084 | [8] 0.002 | [9] -0.027 | [10] -0.051 | Nexturastat A 0.334 | vemurafenib -0.023 | [11] 0 | [12] 0.054 | givinostat -0.004 | barasertib 0.021

2 successive entries already listed:
PI4KA (UniProt P42356)
inactive: IRAK-1-4 Inhibitor I -0.032 | ibrutinib -0.004 | [1] 0.004 | ralimetinib 0.157 | [2] 0 | [3] -0.066 | [4] 0.101 | pinometostat 0.134 | [5] 0.002 | [6] -0.009 | [7] 0.036 | [8] -0.052 | [9] -0.023 | [10] -0.047 | Nexturastat A 0.211 | vemurafenib -0.01 | [11] 0.072 | [12] 0.029 | givinostat 0.057 | barasertib 0.044

PITHD1 (UniProt Q9GZP4)
inactive: IRAK-1-4 Inhibitor I 0.081 | ibrutinib 0.048 | [1] -0.022 | ralimetinib -0.08 | [2] 0.059 | [3] 0.128 | [4] 0.031 | pinometostat 0.007 | [5] 0.034 | [6] 0 | [7] 0.012 | [8] 0.034 | [9] 0.023 | [10] -0.086 | Nexturastat A -0.005 | vemurafenib -0.027 | [11] -0.11 | [12] -0.086 | givinostat -0.06 | barasertib 0.027

Next part:

PIGK (UniProt Q92643)
inactive: IRAK-1-4 Inhibitor I -0.087 | ibrutinib 0.01 | [1] 0 | ralimetinib 0.021 | [2] -0.027 | [3] -0.061 | [4] 0.01 | pinometostat -0.011 | [5] -0.015 | [6] 0.002 | [7] -0.036 | [8] -0.014 | [9] -0.02 | [10] 0.009 | Nexturastat A 0.066 | vemurafenib -0.062 | [11] 0.006 | [12] 0 | givinostat 0.009 | barasertib -0.038

PIGS (UniProt Q96S52)
inactive: IRAK-1-4 Inhibitor I -0.028 | ibrutinib -0.026 | [1] 0.013 | ralimetinib 0.024 | [2] 0.033 | [3] -0.013 | [4] -0.02 | pinometostat 0.065 | [5] -0.01 | [6] 0.044 | [7] -0.025 | [8] 0.007 | [9] -0.033 | [10] -0.003 | Nexturastat A 0.037 | vemurafenib 0.026 | [11] 0.001 | [12] 0.002 | givinostat 0.033 | barasertib 0.027

PIN4 isoform 2 (UniProt Q9Y237)
inactive: IRAK-1-4 Inhibitor I 0.041 | ibrutinib -0.012 | [1] 0.006 | ralimetinib -0.083 | [2] -0.007 | [3] 0.047 | [4] -0.027 | pinometostat -0.01 | [5] 0.016 | [6] 0.014 | [7] -0.022 | [8] 0.012 | [9] 0.001 | [10] 0.032 | Nexturastat A 0.003 | vemurafenib 0.039 | [11] 0.008 | [12] -0.074 | givinostat -0.049 | barasertib -0.002

PGK1 (UniProt P00558)
inactive: IRAK-1-4 Inhibitor I 0.06 | ibrutinib 0.007 | [1] -0.019 | ralimetinib -0.022 | [2] 0 | [3] 0.011 | [4] -0.006 | pinometostat -0.02 | [5] -0.031 | [6] 0.08 | [7] 0.022 | [8] -0.004 | [9] -0.016 | [10] 0.027 | Nexturastat A -0.05 | vemurafenib 0.003 | [11] -0.012 | [12] -0.042 | givinostat -0.079 | barasertib 0.007

PIGQ (UniProt Q9BRB3)
inactive: IRAK-1-4 Inhibitor I -0.04 | ibrutinib 0.097 | [1] 0.03 | ralimetinib -0.03 | [2] -0.094 | [3] 0.186 | [4] 0.161 | pinometostat 0.138 | [5] -0.094 | [6] 0.022 | [7] -0.18 | [8] 0.131 | [10] -0.058 | Nexturastat A 0.191 | vemurafenib -0.019 | [12] 0.241 | givinostat -0.043 | barasertib -0.048

PEX6 (UniProt Q13608)
inactive: IRAK-1-4 Inhibitor I -0.024 | ibrutinib -0.024 | [1] -0.026 | ralimetinib -0.053 | [2] -0.101 | [3] 0.023 | [4] 0.012 | pinometostat -0.003 | [5] -0.03 | [6] 0.012 | [7] 0.079 | [8] -0.015 | [9] -0.021 | [10] 0.015 | Nexturastat A 0.009 | vemurafenib 0.039 | [11] 0.003 | [12] 0.005 | givinostat -0.032 | barasertib -0.003

PGD (UniProt P52209)
inactive: IRAK-1-4 Inhibitor I 0.074 | ibrutinib 0 | [1] -0.02 | ralimetinib -0.058 | [2] -0.021 | [3] 0.015 | [4] -0.012 | pinometostat -0.002 | [5] 0.004 | [6] 0.025 | [7] -0.005 | [8] 0.018 | [9] 0.037 | [10] 0.044 | Nexturastat A -0.076 | vemurafenib -0.009 | [11] 0.064 | [12] 0.01 | givinostat -0.039 | barasertib 0.016

PLCD1 isoform 2 (UniProt P51178)
inactive: IRAK-1-4 Inhibitor I -0.014 | ibrutinib 0.014 | [1] -0.146 | ralimetinib -0.007 | [2] -0.113 | [3] -0.085 | [4] 0.035 | pinometostat 0.042 | [5] 0.014 | [6] 0.018 | [7] 0.048 | [8] -0.008 | [9] 0.015 | [10] -0.021 | Nexturastat A -0.043 | vemurafenib 0.003 | [11] 0.03 | [12] -0.006 | givinostat 0.049 | barasertib 0.053

PGP (UniProt A6NDG6)
inactive: IRAK-1-4 Inhibitor I 0.017 | ibrutinib -0.027 | [1] -0.009 | ralimetinib -0.028 | [2] -0.018 | [3] 0.062 | [4] -0.018 | pinometostat -0.068 | [5] 0.008 | [6] -0.02 | [7] 0.007 | [8] -0.014 | [9] 0.027 | [10] 0.019 | Nexturastat A -0.132 | vemurafenib -0.027 | [11] 0.017 | [12] 0.013 | givinostat -0.001 | barasertib 0.001

PHF23 (UniProt Q9BUL5)
inactive: IRAK-1-4 Inhibitor I 0.044 | ibrutinib -0.039 | [1] 0.011 | ralimetinib -0.098 | [2] -0.018 | [3] 0.025 | [4] 0.006 | pinometostat 0.018 | [5] 0.022 | [6] -0.005 | [7] -0.036 | [8] -0.013 | [9] -0.003 | [10] -0.029 | Nexturastat A -0.02 | vemurafenib -0.007 | [11] -0.024 | [12] -0.013 | givinostat 0.008 | barasertib -0.003
